From the supplement of paper PMC12889115
The list shows a part of the results. These are raw signals, not scaled to a control.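 Primary screen: polymyxin B was added at a level permeabilizing Salmonella outer membranes while sparing inner membranes. DMSO wells, both with and without polymyxin B, established maximum growth. Plate-to-plate variation meant each plate was ranked on its own, and the lowest-OD600 compounds were selected as hits.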

Tested on: Salmonella enterica serovar Typhimurium SL1344
Test: bacterial growth OD600 after 18 h with compound and polymyxin B; higher = more bacterial growth (less inhibition)
Settings: 50 µM, Mueller-Hinton broth

SMILES | bacterial growth OD600 (polymyxin B 0.75 µg/mL) | bacterial growth OD600 (polymyxin B 1 µg/mL)
Cc1ncc2c(c1CNC(=O)C1CCCO1)CCN(C(=O)c1ccc(F)cc1Cl)C2 (stereo not given) | 0.771 | 
CCOC(=O)C1(Cc2ccc(F)cc2F)CCCN(C(=O)c2cc(C)n(C)n2)C1 (stereo not given) |  | 1.31
Cc1ccn2c(CNCCN3CCCCC3)c(C(=O)N3CCCCCC3)nc2c1 | 0.811 | 
COc1ccc(CCNC(=O)C2CCN(c3nc(C)c4ccc(S(C)(=O)=O)cc4n3)CC2)cc1 | 0.847 | 
Cc1nc(N2CCC(C(=O)NCC3CC4C=CC3C43CC3)CC2)nc2ccccc12 (stereo not given) | 0.87 | 
Cc1cnc(CNC(=O)CC(c2ccccc2)c2ccccc2Cl)cn1 (stereo not given) |  | 0.819
CCN1CCCC(CN(C)c2nc3nonc3nc2NCCOC)C1 (stereo not given) |  | 0.838
Cc1cc(C(=O)NCC2CCCN(Cc3ccc(Sc4nncn4C)o3)C2)no1 (stereo not given) |  | 0.906
Cc1cc(C)n(CCC(=O)NCc2cccnc2Oc2ccccc2F)n1 |  | 0.927
CN(C(=O)CC(c1cccc(Cl)c1)c1ccccc1O)C1CCOCC1 (stereo not given) |  | 1.15
COc1cc(OC)nc(NCc2cccnc2N2CCOCC2)n1 |  | 0.815
CCCCn1c(CN2CCCCC2CCOC)cnc1S(=O)(=O)C1CCCCC1 (stereo not given) |  | 0.006
CC(C)=CC(=O)N1CCC2(CC1)CC2C(=O)NCc1cccc(C)n1 (stereo not given) | 0.95 | 
COc1cccc(OCc2nc(C(=O)N(C)CC(C)C)co2)c1 |  | 0.889
CC(C)CNCC1(O)CCCN(Cc2cccc(F)c2F)C1=O (stereo not given) | 0.985 | 
O=C(NCCC(c1ccccc1)c1ccccc1)C1CC12CCN(C(=O)Cc1cccs1)CC2 (stereo not given) | 0.017 | 
COc1ccc(-c2noc(-c3ccc(OCC4(C)CCCNC4)nc3)n2)cc1 (stereo not given) |  | 0.046
CC(C)c1cc(C(=O)N2CCCC(C(=O)Nc3ccccc3Oc3cccnc3)C2)no1 (stereo not given) |  | 0.365
CC(C)CNc1ccc(C(=O)NCCC2CCCCN2C)cn1 (stereo not given) |  | 0.958
CCC1CN(CC=C(C)C)Cc2cc(OC)ccc2O1 (stereo not given) | 0.798 | 

Two of the compounds above, as tab-separated lines.
SMILES	bacterial growth OD600 (polymyxin B 0.75 µg/mL)	bacterial growth OD600 (polymyxin B 1 µg/mL)
COc1ccc(-c2noc(-c3ccc(OCC4(C)CCCNC4)nc3)n2)cc1 (stereo not given)		0.046
CC(C)c1cc(C(=O)N2CCCC(C(=O)Nc3ccccc3Oc3cccnc3)C2)no1 (stereo not given)		0.365
